US9763956B2, “Diagnostic and treatment methods in subjects having or at risk of developing resistance to cancer therapy” (The Broad Institute, Inc., priority 2012, dated 2017)
For at least one compound, name, drawing or mass did not settle the structure.

Tested on: Notch inhibitor resistant (persister) T-ALL cell lines
Assay: Cell viability / proliferation (Celltiterglo luminescence)
Assay type: cell-based, human
Conditions: compared to naïve cells, viability read on day 6
Experimental: Notch inhibitor sensitive and resistant T-ALL cell lines were plated in 96 well plates and treated with vehicle, 1 uM GSI and/or increasing concentrations of the bet inhibitor JQ1. Cell viability was determined by measuring luminescence after Celltiterglo® (Promega) addition on day 6. Apoptosis was measured using Caspaseglo® (Promega) on day 4.

Structure (SMILES): CO[C@H]1C[C@@H]2CC[C@@H](C)[C@@](O)(O2)C(=O)C(=O)N2CCCC[C@H]2C(=O)O[C@H]([C@H](C)C[C@@H]2CC[C@@H](O)[C@H](OC)C2)CC(=O)[C@H](C)/C=C(\C)[C@@H](O)[C@@H](OC)C(=O)[C@H](C)C[C@H](C)/C=C/C=C/C=C/1C [Rapamycin]
- proliferation / survival of resistant (persister) leukemia cells: sensitivity
